Test results: paper PMC8269334
These are yes or no findings as the source states them, for the method shown. In cells and extracts the contact can be indirect. Some results given as binding are weak or reduced against the parent protein; the word gives no strength.

Chains of the proteins cited; added tags and fusions are not shown. Lines headed by an entry give the natural chain unless they say otherwise; changes in a name come on top. Residues count along the entry.
UniProt Q13177: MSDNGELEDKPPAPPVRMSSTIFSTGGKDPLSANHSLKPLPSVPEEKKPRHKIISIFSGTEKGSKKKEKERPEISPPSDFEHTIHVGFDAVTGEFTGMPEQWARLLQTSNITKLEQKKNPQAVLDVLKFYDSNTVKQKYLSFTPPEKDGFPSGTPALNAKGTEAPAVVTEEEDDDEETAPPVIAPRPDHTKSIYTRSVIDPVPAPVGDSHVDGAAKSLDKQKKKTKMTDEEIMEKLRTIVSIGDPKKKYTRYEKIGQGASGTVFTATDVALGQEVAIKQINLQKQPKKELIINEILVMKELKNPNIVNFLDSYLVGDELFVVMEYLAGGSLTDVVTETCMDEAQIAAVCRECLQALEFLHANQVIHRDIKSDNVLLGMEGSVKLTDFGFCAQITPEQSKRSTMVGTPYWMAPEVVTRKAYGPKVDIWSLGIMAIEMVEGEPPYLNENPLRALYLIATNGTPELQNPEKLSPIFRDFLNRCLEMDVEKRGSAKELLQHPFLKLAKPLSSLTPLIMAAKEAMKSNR
UniProt P06748: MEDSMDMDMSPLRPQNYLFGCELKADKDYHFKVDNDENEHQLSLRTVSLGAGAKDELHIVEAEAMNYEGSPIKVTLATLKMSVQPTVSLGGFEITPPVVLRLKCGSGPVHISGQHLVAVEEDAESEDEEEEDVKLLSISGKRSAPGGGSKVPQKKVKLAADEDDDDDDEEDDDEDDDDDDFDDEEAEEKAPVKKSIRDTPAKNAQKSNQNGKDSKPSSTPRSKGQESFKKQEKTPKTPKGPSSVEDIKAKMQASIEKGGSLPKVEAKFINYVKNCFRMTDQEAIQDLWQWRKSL
eGFP_Δ117NPMwt: residues 118-294 of P06748

Columns and labels:
PAK2_eGFP = PAK2_eGFP (UniProt Q13177); test: co-IP; GFP-Trap_A beads on lysates of HEK-293T cells transfected with one eGFP-tagged construct; lysis in 10 mM Tris/Cl pH 7.5, 150 mM NaCl, 0.5 mM EDTA, 0.5% NP-40; 1 h at 4 °C; co-precipitated endogenous proteins detected by immunoblotting
eGFP_Δ117NPMwt (human) = eGFP_Δ117NPMwt (human) (UniProt P06748); test: as above

endogenous NPM (HEK-293T) (from UniProt P06748 1-294)
binding (PAK2_eGFP): no binding | binding (eGFP_Δ117NPMwt (human)): binds
